Laboratory results reported in publication doi:10.1101/317834.

By UniProt entry, the sequences of proteins in these tests, tags left out. Where a name states a change or a piece, a line headed by the entry shows the natural chain unless it says otherwise.
UniProt Q2LKW6: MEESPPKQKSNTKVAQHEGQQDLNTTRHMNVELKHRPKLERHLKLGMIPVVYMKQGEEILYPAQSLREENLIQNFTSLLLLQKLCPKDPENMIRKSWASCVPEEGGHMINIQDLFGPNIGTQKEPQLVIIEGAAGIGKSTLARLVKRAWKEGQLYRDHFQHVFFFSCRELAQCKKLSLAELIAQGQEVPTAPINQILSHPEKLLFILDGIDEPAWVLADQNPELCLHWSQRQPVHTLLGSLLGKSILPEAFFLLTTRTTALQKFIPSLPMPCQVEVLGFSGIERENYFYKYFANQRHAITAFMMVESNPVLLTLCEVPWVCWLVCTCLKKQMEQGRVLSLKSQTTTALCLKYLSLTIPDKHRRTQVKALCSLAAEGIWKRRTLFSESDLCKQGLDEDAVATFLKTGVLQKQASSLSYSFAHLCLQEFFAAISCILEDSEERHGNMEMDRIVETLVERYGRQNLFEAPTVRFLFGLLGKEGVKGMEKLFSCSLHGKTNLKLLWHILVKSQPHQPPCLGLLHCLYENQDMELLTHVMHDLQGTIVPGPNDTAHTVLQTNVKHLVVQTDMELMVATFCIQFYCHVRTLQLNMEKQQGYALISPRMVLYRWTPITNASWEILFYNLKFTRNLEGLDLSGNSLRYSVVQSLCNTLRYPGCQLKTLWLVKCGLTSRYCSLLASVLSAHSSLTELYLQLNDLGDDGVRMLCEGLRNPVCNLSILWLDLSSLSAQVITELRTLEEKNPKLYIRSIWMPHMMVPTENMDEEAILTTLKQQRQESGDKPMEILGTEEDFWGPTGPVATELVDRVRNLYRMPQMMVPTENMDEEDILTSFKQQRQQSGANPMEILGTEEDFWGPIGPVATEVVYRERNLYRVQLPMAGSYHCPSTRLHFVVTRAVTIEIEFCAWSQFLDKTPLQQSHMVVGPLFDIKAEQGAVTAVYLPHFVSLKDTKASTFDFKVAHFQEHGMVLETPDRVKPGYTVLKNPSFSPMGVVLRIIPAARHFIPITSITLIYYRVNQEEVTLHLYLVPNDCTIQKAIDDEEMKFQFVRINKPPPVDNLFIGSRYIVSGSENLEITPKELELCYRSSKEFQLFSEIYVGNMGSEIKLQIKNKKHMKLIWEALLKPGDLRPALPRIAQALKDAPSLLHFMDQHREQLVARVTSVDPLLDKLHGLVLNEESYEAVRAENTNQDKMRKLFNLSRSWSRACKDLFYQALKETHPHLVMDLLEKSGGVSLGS

Target: T1, Caspase-1 (UniProt P29452)
T1 sequence: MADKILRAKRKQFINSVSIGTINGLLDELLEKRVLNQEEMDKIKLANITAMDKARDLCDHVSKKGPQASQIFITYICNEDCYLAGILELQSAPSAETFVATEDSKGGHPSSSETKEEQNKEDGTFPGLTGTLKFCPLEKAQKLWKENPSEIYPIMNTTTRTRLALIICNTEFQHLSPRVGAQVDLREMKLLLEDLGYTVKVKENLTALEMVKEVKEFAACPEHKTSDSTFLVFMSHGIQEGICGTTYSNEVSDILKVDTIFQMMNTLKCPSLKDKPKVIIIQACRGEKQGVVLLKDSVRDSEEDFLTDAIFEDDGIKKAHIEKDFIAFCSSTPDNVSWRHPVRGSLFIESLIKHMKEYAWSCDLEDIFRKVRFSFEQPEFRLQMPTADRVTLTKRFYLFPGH
Test: co-IP

Substance	binding
NLRP1B FIIND(UPA)-CARD truncation (1124-1233) (from UniProt Q2LKW6) (domain or fragment)	no binding
NLRP1B CARD domain (1143-1233) (from UniProt Q2LKW6) (domain or fragment)	no binding
NLRP1B full length FIIND(ZU5+UPA)-CARD (745-1233) (from UniProt Q2LKW6) (domain or fragment)	no binding
NLRP1B FIIND(UPA)-CARD fragment (986-1233) (from UniProt Q2LKW6) (domain or fragment)	binds

These are yes or no findings as the source states them, for the method shown. In cells and extracts the contact can be indirect. A result given as binding can be weak or reduced; the word gives no strength.
